At least one compound was matched to its structure with a doubt left.
Test system: ACSVL3
Test: Acyl-CoA synthetase activity of control vs ACSVL3-deficient U87 cells with candidate small molecule inhibitors
Type: biochemical, human
Settings: 80 μM drug; palmitic acid substrate; preliminary studies, FIG. 14
Description: Acyl-CoA synthetase assays. Activation of [1-^14C]palmitate (C16:0) or [1-^14C]lignocerate (C24:0) (Moravek Biochemicals, Brea Calif.) to their CoA derivatives was measured in frozen/thawed cell suspensions or post-nuclear supernatants of xenograft tissue homogenates as previously described (9, 19). Assays contained 15 or 60 μg cell or tissue protein for C16:0 and C24:0 fatty acid substrates, respectively.
For this study, we examined the effects of candidate small molecule inhibitors on the acyl-CoA synthetase activity of control U87 glioblastoma cells and ACSVL3-deficient U87 cells. The 16-carbon fatty acid, palmitic acid, was used as substrate. Drugs were solubilized in dimethylsulfoxide (DMSO, 10 mM) and diluted with phosphate-buffered saline (PBS, 0.8 mM) prior to their inclusion in enzyme assays; the final concentration of drug in the assay was 80 μM. Control incubations contained the vehicle, DMSO diluted in PBS, only. The assay measures the combined enzyme activity of all acyl-CoA synthetases found in U87 cells that are capable of using palmitic acid as substrate. A specific inhibitor of ACSVL3 is one in which there is partial inhibition of total cellular enzyme activity in control U87 cells (grey bars), but not in ACSVL3-deficient U87 cells (black bars).

O=C1C=CC(=O)c2c(O)cccc21 [juglone]
inhibition of acyl-CoA synthetase activity in control vs ACSVL3-deficient U87 cells (specificity for ACSVL3): inhibit enzyme activity similarly in both control and ACSVL3-deficient U87 cells

— US20110269815A1, “METHODS OF REDUCING CELLULAR PROLIFERATION BY INHIBITING ACSVL3” (THE JOHNS HOPKINS UNIVERSITY, priority 2008, published 2011)
